Source: ChEMBL document CHEMBL3988442, “University of Dundee, Small-Polar-MMV Screening Library” (2021).

Values are the deposited “Percent Effect”, in %. The record does not define 0% and 100%; most values in the screen are far below 50% and negative numbers occur (in some assays of this library far below -100). This is an unselected part of the compounds tested. Two or more numbers in one place are separate tests of the same structure; such repeats can differ widely.

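Phenotypic screen: M. tuberculosis growth, cholesterol and DPPC medium, 4 days; the read-out is not stated. Compounds at 50 µM. Higher reads as more growth inhibition (inferred: compounds with an IC50 in retests scored well above the rest). About 69,000 compounds were tested under these conditions; 0.54% (about 370) showed 50% or more at least once.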

| structure | Percent Effect |
|---|---|
| `O=C(O)C(F)(F)F.O=C(O)C(F)(F)F.O=C1CC[C@]2(CC[C@@H](NC3CCOC3)CC2)N1Cc1ccncc1` (some centres not stated) | 18.62 |
| `O=C(O)C(F)(F)F.O=C(O)C(F)(F)F.[H][C@@]12CN(Cc3ccccc3)C[C@]1([H])C(=O)N(CCN1CCCC1)C2` | -4.637 |
| `CN(C)c1cc(C2CCCNC2)ccn1.Cl.Cl` (configuration not stated) | -0.9578 and 14.83 |
| `CNC(=O)CCc1cc(C)nc(C2CCN(c3ccccc3)CC2)c1` | -3.782 and -14.48 |
| `CSc1cccc(CNC(=O)[C@H]2CNC[C@@H](C(=O)N3CCOCC3)C2)c1` | 8.09 |
| `O=C(Cn1cc(I)cn1)N1CCCCCC1` | 19.53 |
| `O=C(NC1CCCCC1)N1CCc2onc(COc3cccnc3)c2C1.O=C(O)C(F)(F)F` | 3.474 and 16.4 |
| `CN(C)CC1CN(C(=O)Cc2ccccc2)Cc2nccn2C1.O=C(O)C(F)(F)F` (configuration not stated) | 2.664 |
| `NC(=O)c1cncc(Oc2cccc(CN3CCCC3)c2Cl)n1` | -0.2822 |
| `CS(=O)(=O)NC1CCCN(C(=O)COCc2ccccc2)C1` (configuration not stated) | 4.419 |
| `Cc1cccc2c1nc(CCO)n2-c1ccc(NS(C)(=O)=O)nc1` | -0.07305 |
| `COc1ccc(-c2cnc(CN3CCCC3CO)o2)cc1` (configuration not stated) | 5.741 |
| `Cc1ccc(CN2Cc3c(C(=O)N4CCOCC4)nn(C)c3C2)s1.O=C(O)C(F)(F)F` | 5.515 |
| `Cc1ccc(CN2CCN(c3ncccc3Cl)CC2CCO)cc1` (configuration not stated) | 7.328 |
| `OC(CN1CCN(CC(F)F)CC1)c1ccc(Br)cc1` (configuration not stated) | 8.247 and -1.932 |
| `Cc1n[nH]c(C)c1C1COCCN1C(=O)Cc1ccccc1F` (configuration not stated) | 13.73 |
| `Cc1ccc(C(=O)N2CCC3(CCCN(c4ccc(C)nn4)C3)C2)cn1` (configuration not stated) | -27.14 |
| `COCCC1CCCCN1Cc1nc(C2CC2)no1` (configuration not stated) | -7.081 and 20.02 |
| `COCCN(C)C[C@@H]1CN(C(=O)c2ccc(=O)n(C)c2)C[C@@H]1CO` | 9.476 and -7.712 |
| `Cc1cnn(CC2CCCCN2C(=O)c2ccc(N(C)C)nc2)c1` (configuration not stated) | 3.543 |
| `CNc1cncc(C2CCCN2Cc2ccnc(C)n2)n1` (configuration not stated) | -4.59 |
| `Cc1noc(C)c1C(=O)N1CCC2(CC1)CC(Oc1ccccc1)CO2` (configuration not stated) | 2.846 |
| `O=C1NCC2(CCCN(C(=O)c3c[nH]nc3C3CCCCC3)C2)O1` (configuration not stated) | 3.322 |
| `[H][C@]12CC[C@]([H])(CN(Cc3ccccc3)C1)N(C(=O)CNC(N)=O)C2` | -22.88 |
| `CC(C)(C)c1cn2nc(N3CCCCC3Cn3cncn3)sc2n1` (configuration not stated) | -11.2 |
| `COc1ccc2c(CN3CCCN(Cc4ccncc4)CC3)n[nH]c2c1` | -5.749 |
| `CN(C(=O)C(c1c(F)cccc1Cl)N(C)C)c1nccs1` (configuration not stated) | -14.88 |
| `CS(=O)(=O)N1CCN(C(=O)c2cc(-c3cccs3)cs2)CC1` | 1.591 |
| `O=C(O)[C@H]1C[C@H](C(=O)NCc2ccncc2)CN(CCC(F)(F)F)C1` | -18.68 |
| `O=C(CN1CCN(c2ccc3nncn3n2)CC1)NC1CCCCC1` | 3.378 |
| `CCn1nccc1S(=O)(=O)N1CCC2(CCCN(C(C)C)C2=O)C1` (configuration not stated) | -23.05 |
| `O=C(O)C(F)(F)F.O=C1CC(c2ccncc2)C2(CCN(C(=O)c3cccc(F)c3)CC2)N1` (configuration not stated) | -27.21 |
| `c1csc(CCNc2nc(-c3ccncc3)nc3c2CCNCC3)c1` | 39.36 and 22.24 |
| `CCn1c(C)cc(C(=O)N2CCCC(n3nc(C)nc3C)C2)c1C` (configuration not stated) | -3.777 |
| `[H][C@@]12CS(=O)(=O)C[C@]1([H])N(Cc1nc3ccccc3[nH]1)CCN2CC=C(C)C` | -3.4 and 4.516 |
| `Cc1cnn(CC2CCCCN2CC(=O)Nc2cccnc2)c1` (configuration not stated) | 0.9049 |
| `CN(CC(=O)N1CC(C)(C)[C@@](C)(O)C1)Cc1ccncc1` | 7.276 |
| `CNS(=O)(=O)c1ccc(CNC(=O)N(C)C(C)COC)cc1` (configuration not stated) | -17.83 |

4 of the entries, repeated:

structure,Percent Effect
Cc1cnn(CC2CCCCN2CC(=O)Nc2cccnc2)c1 (configuration not stated),0.9049
CN(CC(=O)N1CC(C)(C)[C@@](C)(O)C1)Cc1ccncc1,7.276
O=C1NCC2(CCCN(C(=O)c3c[nH]nc3C3CCCCC3)C2)O1 (configuration not stated),3.322
[H][C@]12CC[C@]([H])(CN(Cc3ccccc3)C1)N(C(=O)CNC(N)=O)C2,-22.88